The values are deposited in ChEMBL (CHEMBL3988442, “University of Dundee, Small-Polar-MMV Screening Library” (2021)).

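Viability assay of Plasmodium falciparum sporozoites; the read-out is not stated. The concentration is filed as 10 mM, unlikely as a test dose, so the dose is not known. The record gives no direction; compounds that gave an IC50 in retests scored well above the rest, so higher reads as lower viability. Strong results were mostly tested again. Size under these conditions: about 34,000 compounds, about 280 of them at 50% or above in at least one test.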

Each number is a percent effect as filed. How 0% and 100% were set is not recorded. Most values in the screen are low, and negative values occur. The compounds are a random part of those screened. Two or more numbers in one place are separate tests of the same structure; such repeats can differ widely.

For CNc1snc(C)c1C(=O)N1CCCC(n2cc(C)cn2)C1 (centres undefined) the result was -6.77%.
For CC(=O)N1CCC(c2cc(C(F)(F)F)nc3nccn23)CC1 the result was 1.841%.
For O=C(CN1CCCC1Cn1cncn1)NC(C1CC1)C1CC1 (centres undefined) the result was -8.735%.
For CC(C)NC(=O)CCNC(=O)c1cnc(Cc2ccc(F)cc2)s1 the result was -19.85%.
For CN1CC(=O)N(c2ccccc2)CC12CCN(C(=O)c1cccs1)C2.O=C(O)C(F)(F)F (centres undefined) the result was -12.96%.
For NC(=O)COc1ccc(C(=O)N2CCCC(n3ccnc3)C2)cc1 (centres undefined) the result was 8.161%.
For CCCNC(=O)c1ccc(NC(=O)c2cccc(OCC)c2)cc1 the result was 19.18%.
For CC(C)c1nn(C)c(Cl)c1CNCc1ccc2c(c1)OCO2.Cl the result was -0.4488%.
For CNC(=O)C1(c2cnccn2)CCCN1C(=O)c1c(F)cccc1F (centres undefined) the result was 1.112%.
For CC(C(=O)N(C)C1CCCCC1)S(=O)(=O)Cc1csc(-c2cccs2)n1 (centres undefined) the result was -39.61% & -44.6%.
For C[C@@H]1CN(Cc2ccsc2)C[C@]12CCN(Cc1cccnc1)C2=O.O=C(O)C(F)(F)F.O=C(O)C(F)(F)F the result was 14.35%.
For O=C1OCCC1N1CCN(C(=O)Cc2c[nH]c3ccccc23)CC1 (centres undefined) the result was 12%.
For [H][C@@]12CCN(c3ncccn3)[C@]1([H])CC[C@H](C(=O)N1CCCCO1)O2 the result was 6.239%.
For CCOC(=O)N1CCC(C(=O)c2cc(F)ccc2F)CC1 the result was -5.276%.
For COc1cccc([C@@H]2N[C@H](c3nccs3)Cc3ccsc32)c1OC the result was 5.193%.
For [H][C@@]12CS(=O)(=O)C[C@]1([H])N(C(=O)Cc1ccc(F)c(C)c1)CCN2CC1CC1 the result was -2.464%.
For Cn1cc(C(=O)NC(Cn2cccn2)C(C)(C)C)cn1 (centres undefined) the result was 5.646%.
For COCc1cncc2c1CCN(C(=O)c1cccc(C#N)c1)C2.O=C(O)C(F)(F)F the result was -2.627%.
For CC(=O)Nc1ccc(CNCC(O)c2ccc(C)cc2)cc1 (centres undefined) the result was -17.89%.
For CC(C)n1nccc1C(=O)N1CCC(c2nnsc2S(C)(=O)=O)CC1 the result was 6.761%.
For COCCNC(=O)CN1CCN(c2nc(C)cs2)C(C)C1 (centres undefined) the result was 1.587%.
For O=C(O)C(F)(F)F.[H][C@@]12CCN(CC3CCC3)C[C@@]1([H])[C@H](C(=O)NC1CC1)CCO2 the result was -9.966%.
For CC(C)C(=O)N1CCCC(c2ncncc2-c2ccncc2)C1 (centres undefined) the result was -7.036%.
For CC(=O)N1CCC2(CCCN2Cc2cnn(C)c2)CC1.O=C(O)C(F)(F)F the result was -3.65%.
For CCN1CC(Oc2ccc(Cl)cc2)=NC(SCC(=O)c2ccccc2)=N1 the result was 10.45%.
For CN1CCCC(Cc2nccnc2Cl)CC1 (centres undefined) the result was 1.577%.
For Cc1cc(N2CCCN(C(=O)Cc3csc(C)n3)CC2)ccn1 the result was 7.176%.
For Cl.c1ccc(CNc2cc(C3CCCNC3)ccn2)nc1 (centres undefined) the result was 0.777%.
For O=C(c1cccnc1)N1CCc2c(COCC3CC3)cncc2C1 the result was 2.02%.
For COc1ccc(CCC(=O)N2CCCC(n3cncn3)C2)cc1 (centres undefined) the result was 8.021%.
For O=C(NCc1cccnc1)c1cn(CCc2ccccc2)nn1 the result was 5.77%.
For Cn1ccnc1COc1ccc(CO)cc1 the result was -2.126%.
For Cc1ccc(NC2CCN(C(=O)c3cnn(C(C)(C)C)c3)CC2)nn1 the result was -0.1023%.
For CN1CCc2c(C#N)c(NCc3cccnc3)n3cnnc3c2C1.Cl the result was 0.8174%.
For CCCn1ccc2cc(NC(=O)NCCn3cnnc3CC)ccc21 the result was -7.675%.
For O=C(NCC1CCOC1)c1ccc(OCC(F)(F)F)nc1 (centres undefined) the result was -1.449%.
For CCOC(=O)CNC(=O)NCc1cc(C)n(-c2ccc(OC)cc2)c1C the result was -0.2725%.
For CC(C)c1nc(C2CCCN2CCc2ccncc2)no1 (centres undefined) the result was -11.45%.
For Cc1cc(C(=O)N2CCC3(CC2)C(=O)N(C)CCN3CC(C)C)c(C)o1.O=C(O)C(F)(F)F the result was -7.426%.
For CCc1cnc(N2CC3(CCN(S(=O)(=O)C4CC4)C3)C2)nc1 the result was 1.959%.
For CC(C)N(C)Cc1cc(=O)n2c(n1)CN(C(=O)c1cnccn1)CCC2 the result was 5.546%.
For COCCC(=O)N1CCC2(CCN(Cc3cccc(F)c3)CC2)CC1.O=C(O)C(F)(F)F the result was 1.649%.
For COCc1ccccc1CNc1cc(N2CCCC2CO)ncn1 (centres undefined) the result was -0.6541%.
For CCc1[nH]ncc1C(=O)N1CCCC(n2ccnc2C(C)C)C1 (centres undefined) the result was -28.43%.
For Cn1cc(CN2CC3(CCN(C(=O)c4ccoc4)C3)C2)cn1 the result was -13.75%.

Once more, the final 3:

| Compound | effect |
|---|---|
| `COCc1ccccc1CNc1cc(N2CCCC2CO)ncn1` (centres undefined) | -0.6541% |
| `CCc1[nH]ncc1C(=O)N1CCCC(n2ccnc2C(C)C)C1` (centres undefined) | -28.43% |
| `Cn1cc(CN2CC3(CCN(C(=O)c4ccoc4)C3)C2)cn1` | -13.75% |